± gives the standard deviation of the averaged measurements. The reference is the same well before dosing, and untreated signal decays as well.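 Fibroblast labels denote human fibroblasts, mainly primary ones from uterus (C12385, HUF), lung (H6013), bone (Hs27A), adrenal (HADF) and skin (WS1), plus mammary HMF and breast cancer-associated Hs343T. Cancer cells are basal-like or mesenchymal-like triple-negative breast cancer lines. A hit is a response shift exceeding 3x replicate standard deviation. The tissue of the other fibroblasts is not given here.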
Tested on: MDAMB468
Assay: relative JC-1 red fluorescence (viability) vs pre-drug, coculture with fibroblast (fraction); higher = more viable cancer cells
Experimental: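 JC-1 labelled TNBC cells cocultured 1:1 (1,500 cells each) with CellTrace Violet stained primary or stromal fibroblasts in 384-well plates in FluoroBrite medium, treated with one of 42 anticancer drugs at 0.1, 1, 10 or 100 uM. JC-1 red fluorescence (mitochondrial integrity in cancer cells only) was read by plate reader every 8 h for 72 h. Values are normalised to each well's pre-drug value. The stock of one drug was tenfold lower, so its dose labels may be too high.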

C=C1C[C@@H]2[C@H](CC[C@]3(C)C(=O)CC[C@@H]23)[C@@]2(C)C=CC(=O)C=C12 [Exemestane]
relative JC-1 red fluorescence
Conditions | 8 h | 16 h | 24 h | 32 h | 40 h | 48 h | 56 h | 64 h | 72 h
0.1 µM, coculture fibroblast: C12385 | 0.883 ± 0.015 | 0.819 ± 0.057 | 0.776 ± 0.032 | 0.727 ± 0.026 | 0.685 ± 0.025 | 0.684 ± 0.02 | 0.644 ± 0.024 | 0.622 ± 0.018 | 0.616 ± 0.021
0.1 µM, coculture fibroblast: H6013 | 0.897 ± 0.032 | 0.809 ± 0.013 | 0.789 ± 0.012 | 0.798 ± 0.014 | 0.7727 ± 0.0076 | 0.7807 ± 0.007 | 0.755 ± 0.0097 | 0.739 ± 0.0088 | 0.69 ± 0.0081
0.1 µM, coculture fibroblast: H6019 | 0.831 ± 0.029 | 0.794 ± 0.0011 | 0.763 ± 0.015 | 0.712 ± 0.022 | 0.673 ± 0.03 | 0.659 ± 0.042 | 0.613 ± 0.044 | 0.575 ± 0.037 | 0.551 ± 0.031
0.1 µM, coculture fibroblast: H6076 | 0.93 ± 0.014 | 0.906 ± 0.0033 | 0.866 ± 0.012 | 0.884 ± 0.019 | 0.814 ± 0.032 | 0.815 ± 0.036 | 0.78 ± 0.038 | 0.768 ± 0.039 | 0.818 ± 0.046
0.1 µM, coculture fibroblast: H6231 | 0.8202 ± 0.0014 | 0.959 ± 0.032 | 0.866 ± 0.066 | 0.818 ± 0.033 | 0.769 ± 0.024 | 0.745 ± 0.027 | 0.686 ± 0.028 | 0.652 ± 0.028 | 0.63 ± 0.031
0.1 µM, coculture fibroblast: HADF | 0.8955 ± 0.0067 | 0.798 ± 0.027 | 0.76 ± 0.011 | 0.7386 ± 0.0061 | 0.6866 ± 0.0048 | 0.6803 ± 0.0055 | 0.631 ± 0.013 | 0.613 ± 0.023 | 0.575 ± 0.017
0.1 µM, coculture fibroblast: HCFa | 0.878 ± 0.023 | 0.812 ± 0.0085 | 0.77 ± 0.011 | 0.739 ± 0.014 | 0.667 ± 0.017 | 0.658 ± 0.027 | 0.604 ± 0.034 | 0.566 ± 0.037 | 0.514 ± 0.045
0.1 µM, coculture fibroblast: HCPF | 0.8799 ± 0.0023 | 0.917 ± 0.11 | 0.865 ± 0.06 | 0.854 ± 0.06 | 0.797 ± 0.082 | 0.764 ± 0.079 | 0.712 ± 0.078 | 0.7 ± 0.077 | 0.683 ± 0.075
0.1 µM, coculture fibroblast: HHSteC | 0.908 ± 0.023 | 0.8382 ± 0.0083 | 0.794 ± 0.019 | 0.762 ± 0.015 | 0.718 ± 0.028 | 0.716 ± 0.033 | 0.646 ± 0.041 | 0.623 ± 0.041 | 0.581 ± 0.038
0.1 µM, coculture fibroblast: HMF | 0.8652 ± 0.0066 | 0.961 ± 0.036 | 0.8873 ± 0.0054 | 0.875 ± 0.021 | 0.807 ± 0.02 | 0.781 ± 0.03 | 0.73 ± 0.031 | 0.707 ± 0.026 | 0.693 ± 0.03
0.1 µM, coculture fibroblast: HPFa | 0.927 ± 0.023 | 0.891 ± 0.045 | 0.822 ± 0.041 | 0.767 ± 0.037 | 0.723 ± 0.047 | 0.713 ± 0.052 | 0.64 ± 0.054 | 0.601 ± 0.058 | 0.525 ± 0.052
0.1 µM, coculture fibroblast: HUF | 0.9206 ± 0.0061 | 0.8382 ± 0.0055 | 0.797 ± 0.015 | 0.7467 ± 0.0027 | 0.6999 ± 0.0055 | 0.671 ± 0.014 | 0.6283 ± 0.0052 | 0.611 ± 0.018 | 0.59 ± 0.017
0.1 µM, coculture fibroblast: Hs5 | 0.809 ± 0.13 | 0.946 ± 0.024 | 0.926 ± 0.026 | 0.913 ± 0.034 | 0.841 ± 0.033 | 0.815 ± 0.024 | 0.778 ± 0.033 | 0.744 ± 0.024 | 0.781 ± 0.038
0.1 µM, coculture fibroblast: Hs27A | 0.8686 ± 0.0059 | 0.8034 ± 0.0022 | 0.7796 ± 0.0034 | 0.775 ± 0.0084 | 0.718 ± 0.011 | 0.711 ± 0.012 | 0.662 ± 0.02 | 0.636 ± 0.023 | 0.585 ± 0.027
0.1 µM, coculture fibroblast: Hs343T | 0.901 ± 0.014 | 0.935 ± 0.0056 | 0.8733 ± 0.0076 | 0.8472 ± 0.008 | 0.7778 ± 0.0019 | 0.769 ± 0.0097 | 0.712 ± 0.0095 | 0.6972 ± 0.0037 | 0.6789 ± 0.0056
0.1 µM, coculture fibroblast: WS1 | 0.878 ± 0.012 | 0.772 ± 0.019 | 0.732 ± 0.012 | 0.672 ± 0.018 | 0.626 ± 0.029 | 0.593 ± 0.044 | 0.571 ± 0.034 | 0.548 ± 0.045 | 0.54 ± 0.054
1 µM, coculture fibroblast: C12385 | 0.876 ± 0.013 | 0.797 ± 0.024 | 0.776 ± 0.011 | 0.72 ± 0.02 | 0.686 ± 0.014 | 0.678 ± 0.028 | 0.638 ± 0.029 | 0.62 ± 0.038 | 0.606 ± 0.027
1 µM, coculture fibroblast: H6013 | 0.8788 ± 0.0022 | 0.8339 ± 0.0051 | 0.7917 ± 0.0033 | 0.77 ± 0.0088 | 0.751 ± 0.022 | 0.757 ± 0.025 | 0.729 ± 0.013 | 0.729 ± 0.014 | 0.665 ± 0.017
1 µM, coculture fibroblast: H6019 | 0.858 ± 0.048 | 0.784 ± 0.055 | 0.774 ± 0.028 | 0.733 ± 0.015 | 0.7014 ± 0.0065 | 0.6983 ± 0.0034 | 0.6523 ± 0.0017 | 0.625 ± 0.0086 | 0.6004 ± 0.0031
1 µM, coculture fibroblast: H6076 | 0.902 ± 0.0099 | 0.855 ± 0.0092 | 0.8383 ± 0.0027 | 0.845 ± 0.025 | 0.774 ± 0.031 | 0.768 ± 0.023 | 0.739 ± 0.021 | 0.724 ± 0.019 | 0.778 ± 0.018
1 µM, coculture fibroblast: H6231 | 0.849 ± 0.02 | 0.956 ± 0.029 | 0.842 ± 0.011 | 0.8403 ± 0.0012 | 0.7767 ± 0.0035 | 0.766 ± 0.0078 | 0.711 ± 0.022 | 0.68 ± 0.014 | 0.667 ± 0.02
1 µM, coculture fibroblast: HADF | 0.9062 ± 0.0024 | 0.822 ± 0.012 | 0.776 ± 0.011 | 0.768 ± 0.015 | 0.7165 ± 0.0063 | 0.7043 ± 0.0014 | 0.652 ± 0.014 | 0.63 ± 0.016 | 0.578 ± 0.013
1 µM, coculture fibroblast: HCFa | 0.849 ± 0.028 | 0.8386 ± 0.0076 | 0.779 ± 0.01 | 0.755 ± 0.02 | 0.697 ± 0.015 | 0.689 ± 0.02 | 0.636 ± 0.02 | 0.596 ± 0.012 | 0.536 ± 0.011
1 µM, coculture fibroblast: HCPF | 0.868 ± 0.016 | 0.92553 ± 0.00069 | 0.852 ± 0.017 | 0.849 ± 0.033 | 0.778 ± 0.031 | 0.746 ± 0.047 | 0.701 ± 0.042 | 0.686 ± 0.047 | 0.676 ± 0.051
1 µM, coculture fibroblast: HHSteC | 0.897 ± 0.021 | 0.835 ± 0.021 | 0.792 ± 0.043 | 0.76 ± 0.049 | 0.726 ± 0.052 | 0.721 ± 0.063 | 0.657 ± 0.072 | 0.627 ± 0.067 | 0.572 ± 0.061
1 µM, coculture fibroblast: HMF | 0.813 ± 0.012 | 0.868 ± 0.027 | 0.816 ± 0.032 | 0.805 ± 0.037 | 0.736 ± 0.031 | 0.718 ± 0.049 | 0.666 ± 0.042 | 0.643 ± 0.046 | 0.635 ± 0.057
1 µM, coculture fibroblast: HPFa | 0.935 ± 0.0035 | 0.8875 ± 0.0074 | 0.844 ± 0.011 | 0.801 ± 0.01 | 0.767 ± 0.023 | 0.748 ± 0.03 | 0.675 ± 0.033 | 0.635 ± 0.038 | 0.545 ± 0.047
1 µM, coculture fibroblast: HUF | 0.9218 ± 0.0073 | 0.8309 ± 0.0062 | 0.7671 ± 0.0054 | 0.71 ± 0.011 | 0.6576 ± 0.0037 | 0.6209 ± 0.0014 | 0.5721 ± 0.0041 | 0.5482 ± 0.0038 | 0.5259 ± 0.0017
1 µM, coculture fibroblast: Hs5 | 0.886 ± 0.12 | 0.885 ± 0.011 | 0.86 ± 0.018 | 0.84 ± 0.042 | 0.786 ± 0.05 | 0.769 ± 0.054 | 0.741 ± 0.047 | 0.715 ± 0.046 | 0.747 ± 0.057
1 µM, coculture fibroblast: Hs27A | 0.863 ± 0.023 | 0.807 ± 0.017 | 0.768 ± 0.045 | 0.754 ± 0.048 | 0.709 ± 0.056 | 0.699 ± 0.048 | 0.651 ± 0.053 | 0.625 ± 0.064 | 0.567 ± 0.055
1 µM, coculture fibroblast: Hs343T | 0.901 ± 0.021 | 0.929 ± 0.011 | 0.8709 ± 0.0067 | 0.849 ± 0.019 | 0.767 ± 0.034 | 0.743 ± 0.041 | 0.691 ± 0.039 | 0.669 ± 0.055 | 0.654 ± 0.075
1 µM, coculture fibroblast: WS1 | 0.874 ± 0.012 | 0.772 ± 0.024 | 0.742 ± 0.014 | 0.671 ± 0.0094 | 0.6224 ± 0.0015 | 0.596 ± 0.01 | 0.556 ± 0.012 | 0.527 ± 0.016 | 0.521 ± 0.019

From the supplement of paper PMC6078165
